We go through 64 molecules from PubChem BioAssay AID2685 (National Center for Advancing Translational Sciences (NCATS), 2010).

The experiment is described as follows: qHTS Assay for Lipid Storage Modulators in Drosophila S3 Cells.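 For cell number change: cells counted by Cell Tracker Red CMTPX staining in the red channel.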 The settings on record: BODIPY lipid droplet fluorescence, 18-24 h; for cell number change: measured here: cell count max response, cells fed with added oleic acid. The method in brief:
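Laser-scanning cytometry quantifies lipid droplet accumulation (500–530 nm total intensity; droplet/cell object ratio) in oleic acid-fed (400 uM added) Drosophila S3 cells treated with a concentration series. 20 uM Triacsin C defined 100% inhibition.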
On the technique in general: In qHTS, concentration-response curves come from the screen itself.

[1] abbreviates: measured here: cell number channel AC50, cells fed with added oleic acid.
[2] abbreviates: measured here: lipid fluorescence (Fed channel) AC50, cells fed with added oleic acid.

Some of the results follow. Further columns of the screen follow, without active or inactive calls. Most of these compounds were active or inconclusive in the main read-out, so they are no random draw. The note in brackets gives the kind of curve behind each potency; many fits are weak.

By AC50 is commonly meant the midpoint of the concentration-response curve, whichever way the signal moves. Take `CC(O)CC(C(=O)NNc1ccccc1)C(=O)NNc1ccccc1` (configuration not stated): the cell number change came out at 41%. The AC50 under setting [1] is 0.366 µM [rising, full curve, poor fit]. Also, the AC50 under setting [2] was 6.51 µM [rising, partial curve, poor fit].

As for `C#CCSc1nnc(-c2c[nH]c3ccccc23)n1C`, under setting [2], the AC50 is 0.731 µM [rising, single point].

In the case of `CC1=CN2C(=NC(=O)CC2(C)C(=O)N(CC(=O)NC2CCCC2)Cc2ccccc2)C=C1` (configuration not stated), the cell number change was found to be 21.2%. The AC50 under setting [2] is 6.51 µM [rising, single point].

As to `Cn1c(=O)c(C(=O)CN2CCN(Cc3ccc4c(c3)OCO4)CC2)c(N)n(Cc2ccccc2)c1=O`, the cell number change was -1.25%. Moreover, under setting [2], the AC50 was 0.517 µM [falling, single point].

In the case of `Cc1ccc(NC(=O)Cn2nc(C)c([N+](=O)[O-])c2C)cc1Cl`, the cell number change was -12.4%.

Turning to `COc1ccc(S(=O)(=O)N2CCN=C2SCc2cccc(F)c2)cc1`, the cell number change turned out to be 12.1%. Further, the AC50 under setting [2] is 29.1 µM [rising, single point].

Regarding `CCOc1cc(CNC2CCCC2)cc(Cl)c1OCc1ccccc1`, the cell number change is -25%. For the same molecule, the concentration at half-maximal activity (AC50) under setting [2] is 29.1 µM [falling, single point].

As to `c1ccc2c(CN3CCCCC3)csc2c1`, the cell number change was -18.1%. Further, under setting [2], the AC50 was 1.64 µM [falling, full curve, poor fit].

`O=S(=O)(c1ccccc1)N1CCN(c2nnnn2-c2ccccc2)CC1`: the cell number change is 2.51%. Moreover, the AC50 under setting [2] is 29.1 µM [rising, single point].

With `O=C(CSc1cn(CCNC(=O)c2ccc3ccccc3c2)c2ccccc12)NCc1ccco1`, the cell number change was found to be 30.6%. Moreover, the AC50 under setting [1] was 4.61 µM [rising, full curve, poor fit]. For the same molecule, under setting [2], the AC50 was 4.61 µM [rising, full curve].

Turning to `O=C(Nc1ccc2c(c1)OCO2)c1cccc(F)c1`, the cell number change was found to be 6.83%. The AC50 under setting [2] is 0.164 µM [rising, full curve, poor fit].

Consider `COc1ccc(Oc2cc(C(F)(F)F)nc(N(C)C)n2)cc1`, for which the cell number change is -43.3%.

Regarding `O=C(NNC(=S)Nc1ccc(Cl)cc1Cl)c1ccc(N2CCOCC2)c([N+](=O)[O-])c1`, the cell number change was 1.87%. The concentration at half-maximal activity (AC50) under setting [2] was 11.6 µM [rising, single point].

Regarding `O=C1CCCN1C(=O)CCC(=O)N1CCCC1=O`, the cell number change is -20.6%. Also, the AC50 under setting [2] is 0.92 µM [falling, full curve].

With `CC(C)(OC(=O)c1cccs1)c1cc2ccccc2c(=O)o1`, the cell number change is -5.63%.

For the molecule `CC(Nc1ccc2c(c1)OCCO2)C(=O)N1CCc2ccccc21` (configuration not stated), the AC50 under setting [1] is 0.092 µM [rising, single point].

Turning to `COc1cc(OC)cc(-c2nnc(SCC(=O)NCc3cccs3)o2)c1`, the cell number change turned out to be 61.2%. Moreover, under setting [1], the AC50 was 3.66 µM [rising, full curve]. Besides, the AC50 under setting [2] is 4.11 µM [rising, partial curve].

`Cc1cc2ccccc2n2c(SCC(=O)N3CCc4ccccc4C3)nnc12`: the cell number change is -25.1%. In addition, under setting [2], the concentration at half-maximal activity (AC50) was 29.1 µM [falling, single point].

Turning to `COC(=O)Cc1c(C)c2ccc(OCC(=O)N3CCCC(C)C3)c(C)c2oc1=O` (configuration not stated), the cell number change was -33.3%. For the same molecule, the half-maximal activity concentration (AC50) under setting [1] is 32.6 µM [falling, single point]. The AC50 under setting [2] was 29.1 µM [falling, single point].

For `Cc1ccccc1OCC(=O)NC(Cc1c[nH]c2ccccc12)C(=O)O` (configuration not stated), the cell number change amounted to 20.1%. Also, the concentration at half-maximal activity (AC50) under setting [2] was 13 µM [rising, single point].

On to `CC(C)(C)NC(=O)COC(=O)c1cc(Br)ccc1Cl`, for which the cell number change is 12.1%. In addition, the AC50 under setting [2] is 23.1 µM [rising, partial curve, poor fit].

For the molecule `COc1ccc(C2CC(=O)N(c3ccccc3)C3=C2C(=O)CCC3)cc1` (configuration not stated), the cell number change came to 17.3%.

Take `CC1CCCCN1c1cc(C#N)c(C#N)cc1[N+](=O)[O-]` (configuration not stated): the cell number change came out at 144%.

Take `COc1ccccc1C(=O)NCCC(=O)NCC1CCCO1` (configuration not stated): the cell number change was 1.43%.

Take `CC(=O)N1CC(C)Sc2ccc(S(=O)(=O)N3CCCCC3)cc21` (configuration not stated): the cell number change came to 8.66%. Moreover, the AC50 under setting [2] was 20.6 µM [rising, single point].

As to `O=C(O)c1ccc(/C=N/Nc2ccc(Cl)nn2)cc1`, the cell number change is -3.36%.

As to `Cc1cccc(NS(=O)(=O)c2ccc(NS(=O)(=O)c3cccs3)cc2)c1`, the cell number change was -7.56%.

For the molecule `CC1CCCC(NC(=O)CCn2c(=S)oc3ccccc32)C1C` (configuration not stated), under setting [2], the AC50 is 0.731 µM [rising, single point].

For the molecule `COc1ccccc1OCC(=O)Nc1nc(C)c(C)s1`, the cell number change turned out to be 8.4%. The AC50 under setting [2] was 29.1 µM [rising, single point].

For the molecule `O=C1CCc2cc(NS(=O)(=O)c3ccc(Cl)cc3)cc3c2N1CC3`, the AC50 under setting [2] is 0.146 µM [falling, full curve, poor fit].

Turning to `COC(=O)Cn1c(=O)cnc2ccccc21`, under setting [2], the AC50 is 20.6 µM [falling, partial curve].

With `CCOc1ccc(C(C)=O)cc1N1C(=O)C2C(C1=O)C1C=CC2C12CC2` (configuration not stated), the cell number change stood at 4.32%.

For `COc1ccccc1NS(=O)(=O)c1cc(C(=O)NCC(C)(C)N2CCOCC2)ccc1C`, under setting [2], the AC50 was 6.51 µM [falling, single point].

Take `Cc1ccc(/C=C2/SC(=S)N(CCCC(=O)Nc3ccc(O)cc3)C2=O)cc1`: the cell number change was -39.8%. Besides, the AC50 under setting [1] was 20.6 µM [falling, single point]. The AC50 under setting [2] is 20.6 µM [falling, single point].

For `Cc1nn(CCOc2ccccc2)c(=O)n1-c1ccc(F)cc1`, the cell number change is -25.5%. Also, the AC50 under setting [2] was 32.6 µM [falling, single point].

As to `COc1ccc2cc(CN(CC3COCCO3)S(=O)(=O)c3c(C)cc(C)cc3C)c(=O)[nH]c2c1` (configuration not stated), the cell number change is 19.1%. For the same molecule, the AC50 under setting [2] is 29.1 µM [falling, single point].

For the molecule `O=C(NC(=S)NCCOCc1ccc(Cl)cc1)c1cccnc1`, the cell number change was -50.6%. The AC50 under setting [1] is 29.1 µM [falling, single point]. Moreover, the half-maximal activity concentration (AC50) under setting [2] is 1.16 µM [falling, partial curve].

As to `Cc1ccc(C(=O)Oc2ccc(N3C(=O)CCC3=O)c(C)c2)cc1`, the cell number change is 136%. Further, under setting [1], the AC50 was 29.1 µM [rising, partial curve].

On to `COc1cc(C(=O)OCC(=O)NC2CCS(=O)(=O)C2)c([N+](=O)[O-])cc1OC` (configuration not stated), for which the cell number change was -40.3%. For the same molecule, the AC50 under setting [2] was 0.651 µM [falling, single point].

On to `CCc1ccc(NC(=O)CSc2nc3ccccc3c(=O)n2CCN2CCOCC2)cc1`, for which the cell number change is -4.97%. The AC50 under setting [2] was 5.17 µM [falling, single point].

For `COc1ccc(OCc2nnc(SCC(N)=O)n2N)cc1`, the cell number change is -27.7%. Moreover, under setting [1], the AC50 was 0.651 µM [falling, full curve]. In addition, under setting [2], the AC50 was 23.1 µM [falling, partial curve].

For `CCn1cc(CNC(=O)c2ccc(Cl)c([N+](=O)[O-])c2)c(C)n1`, the cell number change is -5.81%. Under setting [2], the AC50 is 20.6 µM [falling, single point].

Consider `COc1ccc(/C=N/Nc2nc3ccccc3o2)cc1OC`, for which the cell number change was -22.3%. Besides, under setting [1], the AC50 is 3.26 µM [falling, full curve, poor fit]. The AC50 under setting [2] is 3.26 µM [falling, full curve].

Turning to `Cc1cccc(C(=O)NCc2nnc(SCC(=O)NC(C)c3ccccc3)n2C)c1` (configuration not stated), the cell number change came out at 6.08%. Besides, under setting [1], the concentration at half-maximal activity (AC50) is 1.64 µM [rising, partial curve]. Moreover, the concentration at half-maximal activity (AC50) under setting [2] was 0.146 µM [rising, full curve, poor fit].

On to `O=C(CCSc1ccccc1)NCc1cccnc1`, for which the cell number change stood at 0.549%. Under setting [2], the AC50 was 6.51 µM [rising, partial curve].

For the molecule `COc1ccc(S(=O)(=O)N2CCOC2CNC(=O)C(=O)NCCN2CCOCC2)cc1OC` (configuration not stated), the cell number change came out at 9.73%. In addition, the AC50 under setting [2] was 0.326 µM [rising, full curve, poor fit].

As to `Cc1ccc(NS(=O)(=O)c2ccc(C)c(C(=O)N3CCOCC3)c2)cc1`, the cell number change was -4.05%.

For `COc1ccccc1Cn1c(CCCO)nc2ccccc21`, the cell number change was determined as 25.7%. For the same molecule, under setting [2], the AC50 is 1.16 µM [rising, partial curve].

With `COC(=O)N1C(=O)[C@](CC(C)C)(c2ccccc2)N1C(=O)OC`, the cell number change was 4.49%.

For the molecule `Cc1nnc(SCC(=O)c2ccc(Br)cc2)s1`, the cell number change is -2.55%.

On to `Cc1cc(C(=O)NP(=O)(N2CC(C)OC(C)C2)N2CC(C)OC(C)C2)c(C)n1C1CC1` (configuration not stated), for which the cell number change was -17.8%. The AC50 under setting [1] was 0.0326 µM [falling, full curve, poor fit]. In addition, the AC50 under setting [2] was 0.259 µM [falling, full curve].

As to `C=CCNc1nc(N)c(C(=O)Nc2cc(C)on2)s1`, the cell number change is -12.3%. Further, the AC50 under setting [2] was 32.6 µM [falling, partial curve, poor fit].

With `O=C(Nc1nc2ccc(S(=O)(=O)N3CCCCC3)cc2s1)c1ccncc1`, the AC50 under setting [1] was 0.58 µM [rising, single point].

In the case of `Cc1ccc(SCCN2C(=O)NC(C)(C)C2=O)cc1`, the cell number change was determined as 2.75%. Besides, the AC50 under setting [1] was 0.116 µM [rising, full curve, poor fit].

Regarding `COc1ccc(Cn2c(C)c(C)c(C#N)c2NC(=O)Nc2cccc(C)c2)cc1`, the cell number change turned out to be 7.94%. Besides, under setting [2], the half-maximal activity concentration (AC50) was 0.00461 µM [falling, full curve, poor fit].

`CCCS(=O)(=O)N1CCCC(C(=O)NC2CCCCC2)C1` (configuration not stated): the cell number change was -13.8%. Also, the AC50 under setting [2] is 2.59 µM [rising, partial curve].

For the molecule `COc1ccccc1-c1nn2c(C(F)(F)F)nnc2s1`, the cell number change was -3.9%.

On to `COc1ccc(C(C(C(=O)c2cccs2)N2CCOCC2)N2CCOCC2)cc1OC` (configuration not stated), for which the cell number change was found to be 158%. Moreover, the AC50 under setting [1] was 23.1 µM [rising, partial curve]. In addition, the AC50 under setting [2] is 0.164 µM [rising, full curve, poor fit].

`CCOC(=O)C1C(C(=O)Nc2cccc(C(F)(F)F)c2)C1C(=O)NC(C)C` (configuration not stated): the cell number change was -23.5%. Also, the AC50 under setting [2] is 29.1 µM [falling, single point].

Regarding `O=C(/C=C/c1cccc([N+](=O)[O-])c1)NCCN1CCOCC1`, the cell number change turned out to be 6.32%.

`c1csc(-c2cnc3n2CCCC3)c1`: the cell number change worked out at 1.7%. Also, the AC50 under setting [2] is 6.51 µM [rising, single point].

As to `CCCCOc1c(Cl)cc(CNC(C)(C)CO)cc1OCC`, the cell number change was -9.98%. In addition, the AC50 under setting [2] was 10.3 µM [falling, partial curve].

For the molecule `Cc1noc(C)c1CSCC(=O)Nc1cc(C(F)(F)F)ccc1N1CCOCC1`, the cell number change was -2.59%. In addition, the AC50 under setting [2] is 4.61 µM [falling, partial curve, poor fit].

Consider `C/C(=N\NC(=O)c1ccccc1C)c1ccc(NC(=O)c2cccs2)cc1`, for which the cell number change came to 8.2%.
